Source: publication PMC5225548
No constants are given. Whether binding was seen depends on the method and setting. In cells and extracts the contact can be indirect. Some binding calls cover weakened binding; strength is not graded here.

By UniProt entry, the sequences of proteins in these tests, tags left out. Where a name states a change or a piece, a line headed by the entry shows the natural chain unless it says otherwise.
UniProt Q15365: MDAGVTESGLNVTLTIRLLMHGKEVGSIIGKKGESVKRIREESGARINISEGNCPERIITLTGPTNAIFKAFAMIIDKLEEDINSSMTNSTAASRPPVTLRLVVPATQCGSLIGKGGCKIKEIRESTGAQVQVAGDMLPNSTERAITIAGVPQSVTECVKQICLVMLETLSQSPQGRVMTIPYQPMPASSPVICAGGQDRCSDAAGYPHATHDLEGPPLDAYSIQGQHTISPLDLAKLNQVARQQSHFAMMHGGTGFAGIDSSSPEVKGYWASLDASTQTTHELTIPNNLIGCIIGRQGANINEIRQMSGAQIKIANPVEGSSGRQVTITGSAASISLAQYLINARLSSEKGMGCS
UniProt P60335: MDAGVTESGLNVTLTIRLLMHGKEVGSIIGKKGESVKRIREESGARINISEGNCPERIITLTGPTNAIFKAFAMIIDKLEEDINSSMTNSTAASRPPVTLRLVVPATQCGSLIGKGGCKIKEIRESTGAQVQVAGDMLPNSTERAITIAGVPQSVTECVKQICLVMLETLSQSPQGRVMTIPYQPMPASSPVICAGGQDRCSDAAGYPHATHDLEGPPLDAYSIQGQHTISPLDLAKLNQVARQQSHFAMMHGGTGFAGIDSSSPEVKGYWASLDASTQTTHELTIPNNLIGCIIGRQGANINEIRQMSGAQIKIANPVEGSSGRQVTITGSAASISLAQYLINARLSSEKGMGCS
UniProt P04792: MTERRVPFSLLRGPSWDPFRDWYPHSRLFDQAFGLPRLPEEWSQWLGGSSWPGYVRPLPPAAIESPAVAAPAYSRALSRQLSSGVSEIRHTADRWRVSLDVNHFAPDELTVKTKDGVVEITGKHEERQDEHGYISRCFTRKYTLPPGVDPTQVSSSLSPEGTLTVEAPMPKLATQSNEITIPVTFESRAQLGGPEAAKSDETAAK

Key:
[1] = target: poly(C)binding protein 1 (PCBP1), endogenous in human lymphoblastoid cell lines (human (endogenous in patient-derived lymphoblastoid cell lines)) (UniProt Q15365); assay: co-IP; patient- and control-derived lymphoblastoid cell lines; pull-down directed against endogenous PCBP1 (antibody, protein G beads with Sepharose 6B), blot for endogenous HSPB1; IgG as negative control; lysis and wash buffer 0.5% Nonidet P-40 in PBS salts; overnight at 4 °C
[2] = target: PCBP1, endogenous in mouse NSC-34 motorneuron-like cells (mouse (endogenous in NSC-34)) (UniProt P60335); assay: co-IP; NSC-34 cells stably transduced with HSPB1 wild type and mutants; pull-down directed against endogenous PCBP1, blot for exogenous HSPB1

In the case of “HSPB1-P182L, endogenous in the lymphoblastoid cell line of a dHMN patient (from UniProt P04792 1-205)”, the binding [1] is reported as “binds”.

“HSPB1-P182L, exogenous, in stably transduced NSC-34 cells (from UniProt P04792 1-205)” was tested, and the binding [2] was “binds”.

In the case of “HSPB1-R127W, endogenous in the lymphoblastoid cell line of a patient (from UniProt P04792 1-205)”, the binding [1] is reported as “no binding”.
